Results are given in words; binding and its absence hold for the method and conditions named. Binding seen in cells or lysates may run through a third protein. Some entries that bind do so weakly or less than the wild type. Where a sequence is shown, tags or fusion partners need not be part of it.
Target: T1, Pib1-HA (S. cerevisiae) (UniProt Q06651)
T1 sequence: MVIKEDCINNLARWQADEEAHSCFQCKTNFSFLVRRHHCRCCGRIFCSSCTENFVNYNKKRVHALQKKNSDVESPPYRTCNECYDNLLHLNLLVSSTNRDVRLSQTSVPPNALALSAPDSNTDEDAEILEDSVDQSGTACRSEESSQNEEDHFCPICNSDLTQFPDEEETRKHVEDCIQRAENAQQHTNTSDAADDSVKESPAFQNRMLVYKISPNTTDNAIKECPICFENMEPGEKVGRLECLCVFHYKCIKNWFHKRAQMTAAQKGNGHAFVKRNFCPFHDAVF
Experiment: co-IP

B1: Rds2-FLAG (protein, UniProt P19541 1-446)
chain: MSANSGVKRASKAFKTCLFCKRSHVVCDKQRPCSRCVKRDIAHLCREDDIAVPNEMPSQHESSPNDNNIQGKYANKAHTGIPSDYQNEPVNKSGSTYGEELSPKLDSSLVNDTTSLLLPQQPVFVSENVGSEFSSLNEFLSMLENPLLTQTSLSSSSASNVHLENGSQTTQSPLEYQNDNRRDEIGVARQENRSPTIMSGSSNSISKGDKQDQEKEESRILANANENSAPTPKEQFFLTAADPSTEMTPEHRLKLVINAKLEAGLLKPYNYAKGYARLQDYMDKYMNQSSKQRILKPLSTIRPAFRTIARSLKDVDLVLVEESFERMLLSYDRVFTSMSMPACLCRRTGEIYRANKEFASLVDCTVDDLRDGKLAIYELMTEESAVNFWEKYGSIAFDKGQKAVLTSCSLRTKDGIRKRPCCFSFTIRRDRYNIPICIVGNFIPLS
- binding: binds
